Measured values as given in article PMC7145699, “Structural insights into target DNA recognition by R2R3-MYB transcription factors”.

Assays:
WER N106A (Arabidopsis) = target: T1, WER N106A (Arabidopsis) (UniProt Q9SEI0); test: ITC; conditions: ITC: 150 mM NaCl, 20 mM HEPES pH 7.5, 25 C, 400 uM protein into 20 uM DNA; recombinant protein; residues 12-130; protein details: 6xHis-SUMO removed by Ulp1
T1 sequence (looked up): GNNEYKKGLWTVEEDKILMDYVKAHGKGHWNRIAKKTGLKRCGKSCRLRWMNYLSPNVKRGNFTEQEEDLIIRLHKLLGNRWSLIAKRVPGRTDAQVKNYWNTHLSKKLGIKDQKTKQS

WER K109A (Arabidopsis) = target: T2, WER K109A (Arabidopsis) (UniProt Q9SEI0); test: ITC; conditions: ITC: 150 mM NaCl, 20 mM HEPES pH 7.5, 25 C, 400 uM protein into 20 uM DNA; recombinant protein; residues 12-130; protein details: 6xHis-SUMO removed by Ulp1
T2 sequence (looked up): T1 sequence (looked up) with A95N, K98A

WER N110A (Arabidopsis) = target: T3, WER N110A (Arabidopsis) (UniProt Q9SEI0); test: ITC; conditions: ITC: 150 mM NaCl, 20 mM HEPES pH 7.5, 25 C, 400 uM protein into 20 uM DNA; recombinant protein; residues 12-130; protein details: 6xHis-SUMO removed by Ulp1
T3 sequence (looked up): T1 sequence (looked up) with A95N, N99A

[1] = target: T4, WER 12-130 (WER-R2R3) (Arabidopsis) (UniProt Q9SEI0); test: EMSA; conditions: 5 mM H2O2; EMSA: 150 mM NaCl, 20 mM Tris-HCl pH 8.0, on ice 1 h, 0.1 uM DNA, 6% native PAGE 0.5x TBE; recombinant protein; residues 12-130; protein details: 6xHis-SUMO removed by Ulp1
T4 sequence (looked up): T1 sequence (looked up) with A95N

Measured: binding result

AAATTCTCCAACCGCATTTTC (double strand) [GL2 promoter WER target DNA]
binds more weakly: all assays above

Changes are numbered by the printed parent chain. The comparison behind a weaker result is the experiment's own reference, which may not be listed here. Where a protein sequence is shown, tags need not be part of it. For some of these results: Construct, isoform or probe ends are uncertain for at least one entry.
